Screen size: about 300,000 compounds; about 3,700 (1.2%) were called active. Inconclusive results, whose numbers are uncertain, are shown with a selection of clear calls. Calls follow the shape of the full dose curve; tested in HEK293 cells. Potencies beside an inconclusive call are fits to weak or partial responses and may not hold up.
Experiment: qHTS for Inhibitors of binding or entry into cells for Lassa Virus; also: nearly all actives have a fitted effect of over 50% in size
Settings: Lassa virus pseudotype entry inhibition, cell reporter; activity change, negative = inhibition: at 37.9 µM (top of the series) unless noted
% is scaled to controls: 0 for no effect and ±100 for the full control effect; potency is read from the fitted curve at half-maximal effect.

| SMILES | Potency | activity change, negative = inhibition |
| --- | --- | --- |
| Cc1ccc(O)c(NC(=S)NC(=O)CC(C)C)c1 | inconclusive: 11.2 µM [activator, partial curve, poor fit] | – |
| CC(C)Oc1ccc(CNC(=O)c2ccc3nc(C(C)C)oc3c2)cc1 | inconclusive: 3.16 µM [inhibitor, single point] | – |
| CN(C)c1ccc(C(=O)Nc2c(C(=O)NC(C)(C)C)oc3ccccc23)cc1 | – | inactive: -19.1% [at 46.1 µM] |
| CCCCN(CC)C(=O)Cn1c(=O)sc2ccccc21 | – | inactive: -11.2% |
| COC(=O)c1ccc(OC)c(CSc2nnc(COc3ccc(Cl)cc3)o2)c1 | inconclusive: 29.1 µM [inhibitor, single point] | – |
| CCCCC(=O)OCC(=O)c1ccc(OCC)cc1 | inconclusive: 4.11 µM [activator, single point] | – |
| CCc1ccccc1N1CC(c2nc3ccccc3n2CCOc2ccc(Cl)c(C)c2)CC1=O (centres undefined) | inconclusive: 22.4 µM [inhibitor, single point] | – |
| C[C@H](NC(=O)Nc1ccccc1F)C(=O)O | – | inactive: 11.5% |
| COC(=O)[C@H](Cc1ccccc1)N1CC=CS1(=O)=O | inconclusive: 2.5 µM [activator, partial curve, poor fit] | – |
| O=C(NCCCN1CCOCC1)c1cc(-c2ccc(Br)cc2)on1 | – | inactive: -2.68% |
| O=C(Nc1ccc(C(=O)O)cc1)Nc1ccc([N+](=O)[O-])cc1 | – | inactive: 3.06% |
| COc1ccc(-n2c(C)c(C(C)=O)c3cc(OCC(N)=O)ccc32)cc1 | inconclusive: 0.794 µM [activator, full curve, poor fit] | – |
| CCOC(=O)N1CCN(S(=O)(=O)N2CCCC(C(=O)NCc3ccc(OC)cc3)C2)CC1 (centres undefined) | – | inactive: -0.627% |
| Nc1cc(-c2ccc(OC(F)(F)F)cc2)nn1-c1ccc(Cl)c(Cl)c1 | – | inconclusive: 9.83% [activator] |
| O=C(c1cccn1-c1nnc(N2CCCCC2)s1)N1CCN(c2ccc(Cl)cc2)CC1 | inconclusive: 6.31 µM [activator, single point] | – |
| CC1=C(/C=C/C(C)=C/C=C/C(C)=C/C(=O)Nc2ccc(O)cc2)C(C)(C)CCC1 | active: 10 µM | – |
| Cc1nn(C)cc1S(=O)(=O)N1CCCCC1C (centres undefined) | inconclusive: 35.5 µM [activator, single point] | – |
| CC(=O)Nc1ccc(OCC(=O)N2CCc3ccccc3C2)cc1 | inconclusive: 7.94 µM [inhibitor, partial curve, poor fit] | – |
| N#CC1C(=N)Cc2ccccc2-c2ccccc21 (centres undefined) | inconclusive: 3.98 µM [inhibitor, partial curve, poor fit] | – |
| CCn1c2ccc(C)cc2c2nnc(SCCN3CCOCC3)nc21 | inconclusive: 11.2 µM [inhibitor, partial curve] | – |
| CC(=O)OC12COC1CC(O)C1(C)C(=O)C(O)C3=C(C)C(O)CC(O)(C(OC(=O)c4ccccc4)C21)C3(C)C (centres undefined) | – | inactive: -0.158% |
| Cc1cc(NC(=O)c2cccs2)n(-c2nc3ccccc3[nH]2)n1 | – | inactive: 11.3% |
| O=C(Nc1cccc(-n2cccn2)c1)C1CCCN(Cc2ccc(C#CCCO)cc2)C1 (centres undefined) | inconclusive: 15.8 µM [inhibitor, single point] | – |

| SMILES | Potency | activity change, negative = inhibition |
| --- | --- | --- |
| Cc1ccc2c(c1)C1CN(C)CCC1N2C(=O)c1ccccc1NS(=O)(=O)c1cccc(C(F)(F)F)c1 (centres undefined) | inconclusive: 35.5 µM [inhibitor, single point] | – |
| O=C(Nc1ccc(Cl)cc1C(=O)O)c1ccc2c(c1)C(=O)N(Cc1ccco1)C2=O | – | inactive: -12.7% |
| COc1ccc2c(c1)c(CC(=O)Nc1cc(C)ccc1C)c(C)n2C(=O)c1ccc(Cl)cc1 | inconclusive: 35.5 µM [inhibitor, single point] | – |
| CCCOC(=O)c1ccc(Oc2c(-c3ccc(OCC)cc3O)n[nH]c2C)cc1 | inconclusive: 6.51 µM [inhibitor, partial curve, poor fit] | – |
| COc1cccc(/C=N/n2c(SC)nnc2-c2ccccc2)c1O | inconclusive: 7.94 µM [inhibitor, partial curve, poor fit] | – |
| CCCCN(c1ccccc1)c1ncnc(N)c1[N+](=O)[O-] | – | inactive: 10.6% |
| Cc1ccc(/C=C/C(=O)c2c(C)cc(C)[nH]c2=O)cc1 | inconclusive: 23.1 µM [inhibitor, single point] | – |
| COCCn1c(SCC(=O)Nc2ncc(Cl)c(C)c2Cl)nc2ccccc21 | inconclusive: 29.1 µM [inhibitor, single point] | – |
| CN(Cc1ccccc1)S(=O)(=O)c1nnc(NC(=O)c2ccccc2Cl)s1 | – | inactive: 3.67% [at 46.1 µM] |
| O=C(Nc1ccc(Cl)c(S(=O)(=O)N2CCOCC2)c1)c1cn2ccccc2n1 | inconclusive: 6.31 µM [inhibitor, single point] | – |
| Cc1nc(CC(=O)Nc2nc(-c3ccccc3)cs2)cs1 | inconclusive: 18.3 µM [inhibitor, partial curve, poor fit] | – |
| CC(=O)c1c(C)n(-c2ccc(Cl)cc2)c2ccc(OC(=O)COc3ccccc3)cc12 | – | inactive: 11% [at 46.1 µM] |
| Cc1ccc(C2C(C(=O)c3cccs3)=C(O)C(=O)N2c2cccc(C)n2)cc1 (centres undefined) | – | inactive: 14.7% |
| NNC(=O)c1cncc(Br)c1 | – | inactive: -0.439% |
| O=C(C1=NN[C@@H]2C(=O)N(Cc3ccccc3)C(=O)[C@H]12)c1ccc([N+](=O)[O-])cc1 | – | inactive: -2.63% [at 46.1 µM] |
| CCCc1cc(=O)[nH]c(Nc2ccccc2O)n1 | inconclusive: 35.5 µM [activator, single point] | – |
| NS(=O)(=O)c1ccc(CCNCc2cc(Br)ccc2OCc2ccccc2)cc1 | inconclusive: 11.6 µM [inhibitor, partial curve, poor fit] | – |
| COc1ccc(/C(C)=N/NC(=O)CNC(=O)C(c2ccccc2)c2ccccc2)c(OC)c1 | inconclusive: 10 µM [inhibitor, partial curve, poor fit] | – |
| Cc1ccccc1S(=O)(=O)Cc1ccc(C(=O)NCc2cccnc2)o1 | inconclusive: 1.3 µM [inhibitor, partial curve] | – |
| Cc1ccc2occ(CC(=O)Nc3ccc(S(=O)(=O)N4CCC(C)CC4)cc3)c2c1 | – | inactive: -28.9% [at 46.1 µM] |
| Cc1ccc(N(Cc2ccccc2)C(=O)Cc2ccc(S(=O)(=O)N3CCOCC3)s2)cc1 | inconclusive: 11.2 µM [inhibitor, partial curve, poor fit] | – |
| Cc1nc2nc(C)c(CCC(=O)NCc3ccccc3)c(C)n2n1 | – | inactive: -17% [at 46.1 µM] |
| CC(=O)/C(C#N)=C1\NC(=O)C(Cc2ccccc2)S1 (centres undefined) | inconclusive: 0.501 µM [inhibitor, full curve] | – |

Sorted by SMILES length (smallest number first): some entries from above

| SMILES | Potency | activity change, negative = inhibition |
| --- | --- | --- |
| CCCCC(=O)OCC(=O)c1ccc(OCC)cc1 | inconclusive: 4.11 µM [activator, single point] | – |
| CCCCN(CC)C(=O)Cn1c(=O)sc2ccccc21 | – | inactive: -11.2% |
| Cc1nc(CC(=O)Nc2nc(-c3ccccc3)cs2)cs1 | inconclusive: 18.3 µM [inhibitor, partial curve, poor fit] | – |
| COc1cccc(/C=N/n2c(SC)nnc2-c2ccccc2)c1O | inconclusive: 7.94 µM [inhibitor, partial curve, poor fit] | – |
| Cc1nc2nc(C)c(CCC(=O)NCc3ccccc3)c(C)n2n1 | – | inactive: -17% [at 46.1 µM] |
| Cc1ccc(/C=C/C(=O)c2c(C)cc(C)[nH]c2=O)cc1 | inconclusive: 23.1 µM [inhibitor, single point] | – |
| Cc1cc(NC(=O)c2cccs2)n(-c2nc3ccccc3[nH]2)n1 | – | inactive: 11.3% |
| CC(C)Oc1ccc(CNC(=O)c2ccc3nc(C(C)C)oc3c2)cc1 | inconclusive: 3.16 µM [inhibitor, single point] | – |
| O=C(Nc1ccc(C(=O)O)cc1)Nc1ccc([N+](=O)[O-])cc1 | – | inactive: 3.06% |
| COc1ccc(-n2c(C)c(C(C)=O)c3cc(OCC(N)=O)ccc32)cc1 | inconclusive: 0.794 µM [activator, full curve, poor fit] | – |
| O=C(Nc1cccc(-n2cccn2)c1)C1CCCN(Cc2ccc(C#CCCO)cc2)C1 (centres undefined) | inconclusive: 15.8 µM [inhibitor, single point] | – |
| Cc1ccc2occ(CC(=O)Nc3ccc(S(=O)(=O)N4CCC(C)CC4)cc3)c2c1 | – | inactive: -28.9% [at 46.1 µM] |
| CC(=O)c1c(C)n(-c2ccc(Cl)cc2)c2ccc(OC(=O)COc3ccccc3)cc12 | – | inactive: 11% [at 46.1 µM] |
| COc1ccc2c(c1)c(CC(=O)Nc1cc(C)ccc1C)c(C)n2C(=O)c1ccc(Cl)cc1 | inconclusive: 35.5 µM [inhibitor, single point] | – |
| O=C(C1=NN[C@@H]2C(=O)N(Cc3ccccc3)C(=O)[C@H]12)c1ccc([N+](=O)[O-])cc1 | – | inactive: -2.63% [at 46.1 µM] |
| CC(=O)OC12COC1CC(O)C1(C)C(=O)C(O)C3=C(C)C(O)CC(O)(C(OC(=O)c4ccccc4)C21)C3(C)C (centres undefined) | – | inactive: -0.158% |

Next part

| SMILES | Potency | activity change, negative = inhibition |
| --- | --- | --- |
| C=C(C)C(=O)Nc1cccnc1Oc1ccc(F)cc1F | inconclusive: 8.91 µM [inhibitor, partial curve, poor fit] | – |
| Cc1nn(Cc2ccccc2Cl)c(C)c1C(=O)Nc1nnc(C2CC2)s1 | inconclusive: 0.447 µM [inhibitor, full curve, poor fit] | – |
| O=C(c1ccc(CS(=O)(=O)c2ccccc2)o1)N1CCC2(CC1)OCCO2 | – | inactive: 18.8% |
| CC1CCc2c(C(=O)NCc3ccco3)csc2C1 (centres undefined) | – | inactive: -0.62% |
| CCCCCCOc1ccc(/C=N/NC(=O)C2CC2)cc1 | inconclusive: 1 µM [inhibitor, full curve, poor fit] | – |
| COc1ccc(C(c2nnnn2CC2CCCO2)N2CCN(c3cccc(C)c3C)CC2)cc1 (centres undefined) | inconclusive: 7.94 µM [inhibitor, partial curve] | – |
| O=C(c1cn(-c2ccccc2)nc1-c1ccc(Br)cc1)N1CCOCC1 | – | inactive: 5.11% |
| O=C1CSC(=Nc2ccccc2Cl)N1 | – | inactive: 17.2% |
| CCOc1ccc2[nH]c(C(=O)N/N=C/c3ccccc3OC)cc2c1 | inconclusive: 1.26 µM [inhibitor, partial curve, poor fit] | – |
| CCOc1cc(NC(=S)Nc2ccccc2OC)c(OCC)cc1NC(=O)c1ccccc1C | inconclusive: 29.1 µM [inhibitor, single point] | – |
| Cc1ccc(-n2nc3ccc(NC(=S)NC(=O)/C=C/c4ccco4)cc3n2)cc1 | inconclusive: 20 µM [activator, partial curve, poor fit] | – |
| CN(C)C(=S)SCC(=O)Nc1ccc(Cl)cc1Cl | – | inactive: 11.1% |
| O=C(Nc1cccc(F)c1)c1oc2ccccc2c1NC(=O)C12CC3CC(CC(C3)C1)C2 | inconclusive: 12.6 µM [activator, single point] | – |
| CCCCn1c(N)c(N(CCC(C)C)C(=O)COC(=O)c2ccc([N+](=O)[O-])s2)c(=O)[nH]c1=O | – | inactive: 1.13% |
| O=c1[nH]c(=O)n([C@H]2C[C@H](O)[C@@H](CO)O2)cc1F | active: 0.291 µM | – |
| CC(O)CNc1ncnc2cc(-c3ccc(F)cc3)sc12 (centres undefined) | inconclusive: 6.31 µM [activator, single point] | – |
| CCC(C)N1C(=O)/C(=C/c2c(NCCCOC(C)C)nc3c(C)cccn3c2=O)SC1=S (centres undefined) | inconclusive: 7.3 µM [inhibitor, partial curve] | – |
| Cc1cc(C(=O)CSc2nnnn2-c2ccc(O)cc2)c(C)n1Cc1ccc2c(c1)OCO2 | inconclusive: 32.6 µM [inhibitor, single point] | – |
| COc1ccccc1NC(=O)c1cn(C)c(=O)c2cc(OC)c(OC)cc12 | inconclusive: 14.1 µM [activator, single point] | – |
| O=C(Nc1ccc2c(c1)OCCO2)C1CCN(C(=O)c2ccc(Cl)cc2)CC1 | inconclusive: 20.6 µM [activator, single point] | – |
| Cc1cccc(N2C(=O)SC(SC(=Nc3ccccc3)Nc3ccccc3)C2=O)c1 (centres undefined) | inconclusive: 22.4 µM [inhibitor, partial curve, poor fit] | – |
| CCCOc1ccccc1/C=C1\SC(N2CCCCC2)=NC1=O | inconclusive: 2.82 µM [inhibitor, full curve, poor fit] | – |
| COCCCn1c(N)c(-c2nc3ccccc3n2C)c2nc3ccccc3nc21 | – | inactive: -16.8% |
